PubChem BioAssay AID1259308 | NCATS | 2017
The deposit covers about 59,000 reagents; below is a part drawn at random. About 1,510 of them (2.6%) count as active. 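Calls use total luciferase alone and ignore viability, so some active siRNAs may act by altering cell number.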 The numbers tell different reagents against one gene apart.

Aim: 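Knock-downs that increase output of a recombinant reporter protein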 (primary screen)
Cells: human HEK293 embryonic kidney cells stably expressing firefly luciferase (HEK-CMV-Luc2-Hygro)
Reagent: single siRNA against human genes, 0.8 pmol siRNA per well
Timing: 72 h
Measured: 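Luciferase light (ONE-Glo) measured on one replicate plate set and viability (CellTiter-Glo) on the other, scaled to a negative control siRNA, with robust z-scores and luciferase per cell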
Scale: total luciferase, z-score and total luciferase, % of control: higher = more reporter protein produced; luciferase per cell, z-score: higher = more reporter output per viable cell; viable cells, % of control: higher = more viable cells
Rule for the call: 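Active when the median/MAD z-score for overall luciferase is greater than 3; a gene was taken forward for validation with new siRNAs if at least two of its three siRNAs passed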
Calls: active = raised luciferase; inactive = no rise

gene | reagent | total luciferase, z-score | total luciferase, % of control | luciferase per cell, z-score | viable cells, % of control | Outcome
DRC3 | 1 | -0.0608 | 80.7 | -0.349 | 98.8 | inactive
DRC3 | 2 | 0.372 | 89.3 | 0.397 | 89.9 | inactive
DRC3 | 3 | -1.43 | 53.5 | -0.359 | 65.7 | inactive
CCDC170 | 1 | 0.284 | 87.5 | 0.22 | 92.3 | inactive
CCDC170 | 2 | -0.367 | 74.6 | -0.139 | 86.4 | inactive
CCDC170 | 3 | 0.924 | 100 | 0.673 | 93.9 | inactive
ADAMTS19 | 1 | 4.31 | 168 | 3.34 | 77.8 | active
ADAMTS19 | 2 | 1.3 | 108 | 0.633 | 102 | inactive
ADAMTS19 | 3 | -0.294 | 76 | -0.669 | 101 | inactive
PRDX2 | 1 | -0.107 | 79.8 | -0.112 | 91.8 | inactive
PRDX2 | 2 | 0.919 | 100 | 0.662 | 94 | inactive
PRDX2 | 3 | -0.221 | 77.5 | -0.665 | 103 | inactive
PTGES2 | 1 | 1.04 | 103 | 2.36 | 61.6 | inactive
PTGES2 | 2 | -1.17 | 58.6 | -1.15 | 88.8 | inactive
PTGES2 | 3 | 1.75 | 117 | 1.09 | 97.7 | inactive
GLB1L2 | 1 | 0.802 | 97.8 | 0.569 | 94.1 | inactive
GLB1L2 | 2 | -0.635 | 69.3 | -0.953 | 99.5 | inactive
GLB1L2 | 3 | 2.6 | 134 | 2.91 | 69.4 | inactive

Records above called active, once more:
gene | reagent | total luciferase, z-score | total luciferase, % of control | luciferase per cell, z-score | viable cells, % of control | Outcome
ADAMTS19 | 1 | 4.31 | 168 | 3.34 | 77.8 | active

The results go on.
gene | reagent | total luciferase, z-score | total luciferase, % of control | luciferase per cell, z-score | viable cells, % of control | Outcome
IFNGR2 | 1 | 0.465 | 91.1 | -0.221 | 108 | inactive
IFNGR2 | 2 | -0.313 | 75.7 | -1.15 | 114 | inactive
IFNGR2 | 3 | 0.757 | 96.9 | 0.00309 | 108 | inactive
UBQLN2 | 1 | 0.963 | 101 | 0.0795 | 111 | inactive
UBQLN2 | 2 | 0.694 | 95.7 | 0.0741 | 105 | inactive
UBQLN2 | 3 | -0.758 | 66.8 | -1.12 | 100 | inactive
PELI3 | 1 | 3.48 | 151 | 4.7 | 49.1 | active
PELI3 | 2 | 1.66 | 115 | 1.56 | 85.2 | inactive
PELI3 | 3 | 1.47 | 111 | 0.87 | 98.8 | inactive
DCAF5 | 1 | 1.07 | 103 | 0.697 | 95.9 | inactive
DCAF5 | 2 | -0.193 | 78 | -0.437 | 97.9 | inactive
DCAF5 | 3 | 1.41 | 110 | 1.71 | 78.3 | inactive
DCP1B | 1 | -0.635 | 69.3 | -0.443 | 87 | inactive
DCP1B | 2 | -2.2 | 38.2 | 0.204 | 40.4 | inactive
DCP1B | 3 | -0.127 | 79.4 | -0.941 | 114 | inactive
PRAG1 | 1 | 0.0788 | 83.5 | -0.141 | 96.8 | inactive
PRAG1 | 2 | 0.971 | 101 | 0.82 | 91.1 | inactive
PRAG1 | 3 | -1.6 | 50.1 | -1.63 | 86 | inactive
NLRP9 | 1 | 0.936 | 101 | 0.828 | 90.3 | inactive
NLRP9 | 2 | 0.347 | 88.8 | 0.227 | 93.5 | inactive
NLRP9 | 3 | -0.345 | 75 | -0.696 | 101 | inactive
